# Laboratory results taken from publication doi:10.1101/2022.01.14.476386 (bioRxiv, 2022).
# By UniProt entry, the sequences of proteins in these tests, tags left out. Where a name states a change or a piece, a line headed by the entry shows the natural chain unless it says otherwise. Chains listed by the source or under a name are the forms on record and can include a tag or linker.
# UniProt P06730: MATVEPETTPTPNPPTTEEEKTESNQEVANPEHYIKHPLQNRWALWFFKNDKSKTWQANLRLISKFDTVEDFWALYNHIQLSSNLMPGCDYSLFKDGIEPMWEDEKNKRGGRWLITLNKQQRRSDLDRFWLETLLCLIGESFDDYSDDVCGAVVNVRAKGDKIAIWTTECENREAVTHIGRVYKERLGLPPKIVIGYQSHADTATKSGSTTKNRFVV
# 4E-BP2 C0 (C0ins/C35S/C73S), non-phosphorylated, labelled with Atto488 at position 0 (Q13542, form named): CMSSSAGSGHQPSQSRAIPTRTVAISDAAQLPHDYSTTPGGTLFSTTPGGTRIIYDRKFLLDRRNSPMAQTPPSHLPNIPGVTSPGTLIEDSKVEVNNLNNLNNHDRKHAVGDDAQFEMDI
# Results are given in words; binding and its absence hold for the method and conditions named. Some binding calls cover weakened binding; strength is not graded here.
# Key:
# [1] = molecular target: eukaryotic initiation factor 4E (eIF4E) (UniProt P06730); test: fluorescence anisotropy decay
# [2] = molecular target: eukaryotic initiation factor 4E (eIF4E) (UniProt P06730); test: fluorescence correlation spectroscopy
substance,measurement,setting,value
"4E-BP2 C0 (C0ins/C35S/C73S), non-phosphorylated, labelled with Atto488 at position 0 (from UniProt Q13542 1-120)",binding,[1],binds
same,binding,[2],binds
